In PubChem BioAssay AID2685 (National Center for Advancing Translational Sciences (NCATS), 2010) one finds cell number change and AC50 data, which are given here for 58 molecules.

This experiment in a line: qHTS Assay for Lipid Storage Modulators in Drosophila S3 Cells.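 As to cell number change: cells counted by Cell Tracker Red CMTPX staining in the red channel.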 As to conditions: BODIPY lipid droplet fluorescence, 18-24 h; for cell number change: measured here: cell count max response, cells fed with added oleic acid. The method, boiled down:
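Drosophila S3 cells loaded with oleic acid (400 uM, as added) and compounds at several concentrations; lipid droplets imaged by 488-nm laser-scanning cytometry, 500–530 nm intensity and object ratio to cell channel. Percent activity normalized to 20 uM Triacsin C.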
For orientation: In qHTS, concentration-response curves come from the screen itself.

[1] abbreviates: measured here: cell number channel AC50, cells fed with added oleic acid.
[2] abbreviates: measured here: lipid fluorescence (Fed channel) AC50, cells fed with added oleic acid.

Each structure is given as a SMILES string. Some of the results follow. These are further read-outs of the screen, such as a control signal, another cell line or another target. No call is given for them. Most of these compounds were active or inconclusive in the main read-out, so they are no random draw. The note in brackets gives the kind of curve behind each potency; many fits are weak.

A word on the AC50: it is the concentration giving half of the maximal activity seen. The low end stands for activity at low concentration, the high end for activity only at high concentration. `O=C(O)CCC(=O)Nc1cccc(-c2nnc(-c3ccccc3)o2)c1`: the cell number change was -6.04%. Moreover, the AC50 under setting [1] was 0.058 µM [falling, full curve, poor fit]. The AC50 under setting [2] was 29.1 µM [rising, single point].

For the molecule `CCOc1c(Nc2ccccc2O)c(=O)c1=O`, the cell number change turned out to be 11.6%. Also, under setting [2], the AC50 is 23.1 µM [rising, single point].

Turning to `CCOc1ccc(/C=C/C(=O)OCC(=O)NCCc2ccc(OCC)c(OCC)c2)cc1OC`, the cell number change was -53.9%. Under setting [1], the AC50 was 29.1 µM [falling, single point].

Take `COc1ccc(/C=C/C(=O)O)cc1S(=O)(=O)Nc1ccc2c(c1)OCO2`: the cell number change was 11.7%.

Consider `CN(Cc1ccccc1)C(=S)NC(=O)c1ccccc1`, for which the cell number change came to 31.5%. Moreover, the AC50 under setting [1] is 29.1 µM [rising, single point]. Moreover, under setting [2], the AC50 is 29.1 µM [rising, single point].

Regarding `COc1ccc(/C=N/NC(=O)Cc2csc(Nc3cccc(C(F)(F)F)c3)n2)cc1C`, the cell number change is -38%. The concentration at half-maximal activity (AC50) under setting [1] is 29.1 µM [falling, single point]. For the same molecule, the AC50 under setting [2] was 16.4 µM [falling, partial curve].

Consider `CC(=O)N1CCN(S(=O)(=O)c2cccc(C(=O)Nc3ccc(OC(F)F)cc3)c2)CC1`, for which the cell number change was -3.81%. Besides, the AC50 under setting [1] was 0.0651 µM [rising, full curve, poor fit].

Consider `Cc1ccccc1CSc1nnc(-c2cccnc2)n1N`, for which the cell number change was -5.71%.

As to `CC1=C(C(=O)OC(C)C)C(C)NC(=O)N1` (stereo unspecified), the cell number change was found to be 3.7%. Moreover, the AC50 under setting [2] is 29.1 µM [falling, single point].

In the case of `O=C(O)c1cc(S(=O)(=O)N2CCOCC2)ccc1N1CCOCC1`, the cell number change is -5.81%. Besides, the AC50 under setting [2] was 29.1 µM [falling, single point].

For the molecule `NCc1ccc(-c2nc3ccccc3o2)cc1`, the cell number change came to 1.44%.

With `CCOC(=O)c1csc(COc2ccccc2Cl)n1`, the cell number change worked out at 50.7%. Besides, the AC50 under setting [1] was 25.9 µM [rising, single point]. The AC50 under setting [2] was 18.4 µM [rising, single point].

In the case of `CCN(CC(O)Cn1c2ccccc2c2ccccc21)S(=O)(=O)c1ccc(F)cc1` (stereo unspecified), the cell number change was -5.55%.

Turning to `O=C(CN1C(=O)NC2(CCCC2)C1=O)OCc1c(F)cccc1Cl`, the cell number change was -96.7%. Also, the AC50 under setting [1] was 20.6 µM [falling, single point]. Moreover, the AC50 under setting [2] is 16.4 µM [falling, single point].

Consider `O=C(COc1ccc(Cl)cc1Cl)NCCC1=CCCCC1`, for which the cell number change is -25.9%. Moreover, the AC50 under setting [2] is 14.6 µM [falling, single point].

Turning to `CCOc1ccc2nc(SCC(=O)c3ccc(C)s3)sc2c1`, the cell number change came to 1.28%.

For the molecule `Cc1cc(C)cc(NC(=S)N2CCC(NC(=O)c3ccc(F)cc3)CC2)c1`, the cell number change was 4.96%.

Turning to `COc1ccc(CN(C)CC(=O)NC(=O)NCc2ccccc2)cc1OC`, the cell number change was determined as 10.1%. Further, the AC50 under setting [2] is 8.2 µM [rising, partial curve, poor fit].

As for `O=C(CCN1C(=O)/C(=C/c2ccc3c(c2)OCO3)SC1=S)Nc1cccc(C(=O)O)c1`, the cell number change was -5.41%. In addition, under setting [2], the AC50 was 29.1 µM [rising, single point].

As for `CCCCCCn1c2c(c(=N)c3c1CCC3)CCC2`, the cell number change is -132%.

In the case of `Cn1c(SCC(=O)NC(C)(C)C)nnc1-c1cccc(NC(=O)c2ccccc2F)c1`, the cell number change came to 95.6%. For the same molecule, the AC50 under setting [1] was 1.84 µM [rising, partial curve]. Besides, under setting [2], the AC50 was 11.6 µM [rising, partial curve, poor fit].

Consider `Cc1ccc(C2=NOC3(CC(=O)N(c4ccccc4)C3=O)C2)cc1` (stereo unspecified), for which the cell number change turned out to be 23.9%. Under setting [2], the AC50 was 32.6 µM [rising, single point].

As for `COCCNC(=S)NC1CC2CCC(C1)N2Cc1ccccc1` (stereo unspecified), the cell number change amounted to 12.5%. Besides, the AC50 under setting [2] was 0.146 µM [rising, full curve, poor fit].

On to `COc1ccc(/C(C)=N/NC(=O)c2nnn(-c3nonc3N)c2-c2cccs2)cc1`, for which the cell number change was found to be 26.2%. Further, the AC50 under setting [2] was 29.1 µM [rising, single point].

In the case of `COc1cc(OC)c2c(N)c(C#N)c(C(F)(F)C(F)(F)F)nc2c1`, the cell number change turned out to be 115%. Also, the AC50 under setting [1] is 2.59 µM [rising, full curve]. Besides, the AC50 under setting [2] is 2.91 µM [rising, full curve].

Regarding `Cc1ccc(S(=O)(=O)NCC(=O)N(CC(=O)NC(C)(C)C)Cc2cccs2)cc1`, the cell number change was -11.8%. Besides, under setting [2], the AC50 is 0.58 µM [falling, single point].

As for `O=C(Nc1cccc(Cn2cccn2)c1)c1cc2c(s1)CCCC2`, the cell number change amounted to 2.7%.

Turning to `CC(=O)Nc1ccc(-n2nnnc2SCC(=O)Nc2cccc(NC(=O)c3ccco3)c2)cc1`, the cell number change was 10%. Under setting [2], the AC50 was 25.9 µM [rising, partial curve, poor fit].

Consider `Cc1c(C(=O)O)oc2ccc(S(=O)(=O)NC3CCCCCCC3)cc12`, for which the cell number change worked out at 7.75%. Further, the AC50 under setting [2] was 13 µM [rising, single point].

Regarding `CCOC(=O)c1ccc(NC(=O)c2cc3c(C)nn(-c4ccccc4Cl)c3s2)s1`, the cell number change is 14.1%. Moreover, the AC50 under setting [1] was 6.51 µM [rising, single point].

Turning to `COc1cccc2c1C(=O)c1c(O)c3c(c(O)c1C2=O)C[C@@](O)(C(=O)CO)C[C@@H]3O[C@H]1C[C@H](N)[C@H](O)[C@H](C)O1`, the cell number change was -93.4%. Also, the AC50 under setting [1] is 2.31 µM [falling, full curve]. Besides, under setting [2], the AC50 is 1.3 µM [falling, full curve].

As to `CCOc1ncccc1C(=O)OCC(=O)Nc1ccc(S(=O)(=O)N2CCCC2)cc1`, the cell number change is -4.48%.

Consider `CC(C)(C)c1ccc(C(=O)N2CCN(CCNC(=O)C(=O)NCc3ccccc3)CC2)cc1`, for which the cell number change turned out to be 31.6%. Under setting [1], the AC50 is 8.2 µM [rising, partial curve, poor fit].

Consider `COC(=O)c1ccccc1NC(=S)NC(=O)COc1ccc(C(C)C)cc1`, for which the cell number change was -24.2%. Also, under setting [1], the AC50 was 4.11 µM [rising, single point]. In addition, the AC50 under setting [2] is 3.26 µM [rising, single point].

As for `O=C1C=C(c2ccc(Oc3ccccc3)cc2)C[C@@H](c2ccc(F)cc2)C1`, the cell number change came to 11.1%.

As for `Cn1cc(C(=O)N/N=C/C2=C(N3CCOCC3)C(=C\c3ccccc3)/CC2)ccc1=O`, the cell number change was -2.66%. For the same molecule, the concentration at half-maximal activity (AC50) under setting [2] is 14.6 µM [rising, partial curve].

On to `O=C(COC(=O)[C@H](Cc1c[nH]c2ccccc12)NC(=O)c1ccc(Cl)cc1)Nc1ccc2c(c1)OCO2`, for which the cell number change stood at 1.3%. For the same molecule, the AC50 under setting [2] was 23.1 µM [rising, partial curve].

`CC(C)(C)Cc1nc(-c2ccc(Cl)cc2)no1`: the cell number change is -82.2%. Besides, under setting [1], the AC50 was 9.2 µM [falling, partial curve].

`COc1ccc(-c2cccc(C3CC=CC4C3C(=O)N(Cc3ccccc3)C4c3ccc(OC)c(Cl)c3)c2)cc1` (stereo unspecified): the cell number change was -31.6%. For the same molecule, the AC50 under setting [1] is 7.31 µM [falling, partial curve, poor fit]. For the same molecule, under setting [2], the AC50 was 13 µM [falling, partial curve].

Consider `COc1ccc(OC)c(/C=C/C(=O)N2C(=O)c3cccc(N)c3C2=O)c1`, for which, under setting [2], the AC50 was 29.1 µM [falling, single point].

On to `CC(=O)c1ccc(S(=O)(=O)N(C)CC(=O)Nc2ccc(C)cc2)cc1`, for which the cell number change is 9.91%. Also, the AC50 under setting [2] was 1.84 µM [rising, full curve, poor fit].

As for `Cc1cc2nc(N3CCN(C(=O)c4ccco4)CC3)sc2cc1C`, the cell number change stood at 51%. Besides, under setting [1], the concentration at half-maximal activity (AC50) is 2.06 µM [rising, full curve].

For `O=c1[nH]cc(S(=O)(=O)c2ccccc2)[nH]1`, the AC50 under setting [1] is 0.731 µM [rising, single point].

`Cc1sc(NC(=O)CSc2nnc(C)c(=O)[nH]2)c(C#N)c1C`: the cell number change worked out at 15.6%. Moreover, the AC50 under setting [1] was 1.64 µM [rising, single point].

On to `CCS(=O)(=O)c1nc(S(=O)(=O)c2ccc(C)cc2)c(N2CCC(O)CC2)s1`, for which the cell number change was -32.9%. Further, under setting [1], the AC50 is 32.6 µM [falling, single point].

For `Cc1cc(OCCOCCNC(C)C)cc(C)c1Cl`, the cell number change was 15.2%. Under setting [1], the AC50 is 4.11 µM [falling, single point]. The AC50 under setting [2] was 6.51 µM [falling, single point].

As for `CCn1c(=O)n(CC)c2cc(NS(=O)(=O)c3ccccc3)ccc21`, the cell number change was 19.4%. For the same molecule, the AC50 under setting [1] was 0.092 µM [rising, full curve, poor fit]. The AC50 under setting [2] is 3.66 µM [rising, single point].

As for `CN(C)S(=O)(=O)Oc1cccc(C(=O)Nc2ccc(Cl)c(Cl)c2)c1`, the cell number change is -13.6%. In addition, the AC50 under setting [2] was 29.1 µM [falling, single point].

As for `O=C(c1cnn2c1NC(c1ccco1)CC2C(F)(F)F)N1CCN(c2cccc(Cl)c2)CC1` (stereo unspecified), the cell number change was 74.8%. In addition, the AC50 under setting [1] is 1.84 µM [rising, full curve]. In addition, the half-maximal activity concentration (AC50) under setting [2] was 1.64 µM [rising, full curve].

On to `O=C(c1cc2cc(Cl)ccc2o1)N1CCCCCC1`, for which the cell number change is 150%. The AC50 under setting [1] is 11.6 µM [rising, partial curve]. Under setting [2], the AC50 was 0.103 µM [falling, full curve, poor fit].

Take `O=C1C(=Cc2cccs2)C(=O)c2ccccc21`: under setting [2], the AC50 was 8.2 µM [falling, partial curve].

With `Cc1cc(C)c(O)c(-c2cc(C(=O)NCc3ccccc3)[nH]n2)c1`, the cell number change was -29%. For the same molecule, the AC50 under setting [2] was 29.1 µM [falling, single point].

Turning to `CCOc1ccc(N2CC(C(=O)NNC(=O)c3ccc(Br)cc3)CC2=O)cc1` (stereo unspecified), under setting [2], the AC50 was 4.61 µM [falling, partial curve, poor fit].

In the case of `Cc1cc(Cl)ccc1NC(=S)N1CCOCC1`, the cell number change amounted to 8.14%. In addition, under setting [2], the AC50 is 14.6 µM [rising, partial curve].

For `CC(=O)NC(CC(=O)Nc1ccc(S(=O)(=O)NC2=NCCCCC2)cc1)c1ccccc1` (stereo unspecified), the cell number change turned out to be 23.1%. Also, under setting [2], the AC50 was 0.146 µM [rising, full curve, poor fit].

Regarding `CCOc1ccc(N(CC(=O)Nc2ccc3c(c2)OCCO3)S(=O)(=O)c2c(C)noc2C)cc1`, the concentration at half-maximal activity (AC50) under setting [1] is 0.231 µM [rising, full curve, poor fit] and the AC50 under setting [2] was 0.206 µM [rising, full curve].

`Cc1cccc(Nc2nc(NCC3CCCO3)nc(N)c2[N+](=O)[O-])c1` (stereo unspecified): the cell number change is -12.3%. For the same molecule, under setting [2], the AC50 was 0.231 µM [rising, full curve, poor fit].

As for `Cn1c(CN2CCCC2)nc2cc(NS(=O)(=O)c3ccc(Cl)cc3)ccc21`, the AC50 under setting [1] is 0.517 µM [rising, full curve] and the AC50 under setting [2] is 1.03 µM [rising, partial curve].
